Source: PMC2949800

Amino acid sequences for entries named in this document (tags omitted). A change or cut given only in a name is not applied to a line headed by its entry.
UniProt P31314: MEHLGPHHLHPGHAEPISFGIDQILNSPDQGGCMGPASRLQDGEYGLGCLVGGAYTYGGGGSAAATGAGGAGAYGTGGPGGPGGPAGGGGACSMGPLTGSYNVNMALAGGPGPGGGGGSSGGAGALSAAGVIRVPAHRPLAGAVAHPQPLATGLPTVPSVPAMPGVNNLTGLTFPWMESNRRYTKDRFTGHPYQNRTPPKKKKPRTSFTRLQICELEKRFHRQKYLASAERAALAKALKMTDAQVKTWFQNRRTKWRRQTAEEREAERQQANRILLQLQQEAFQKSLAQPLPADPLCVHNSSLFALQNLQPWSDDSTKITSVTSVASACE

Biological target: FLAG-HOX11 wild type (UniProt P31314)
Experiment: EMSA
Settings: 10 mM Tris-HCl pH 7.6, 50 mM NaCl, 1 mM EDTA, 5% glycerol, 6 ug nuclear extract in 10 ul, room temperature 30 min; 6% native PAGE, 0.5x TBE, EMSA stain; protein in an extract; label: none (gel stained)

TCCATCCCAGTAATAAGTGTTTT (double strand) [CCNB1 promoter TAAGTG probe]
binding result: binds

Construct, isoform or probe ends are uncertain for at least one entry. Results from cells or extracts need not show a direct contact.
